Reference: patent publication US6730064B2, “Coated implantable medical device” (Cook Incorporated, priority 1998, dated 2004)

Assay: Passive loading of radio-labeled antibody on parylene coated GR II stent
Assay type: physicochemical
Details: parylene coated stent immersed approx. 24 hours in 1 mg/ml antibody, pH=7.2, 37° C.

**Q.** For “c7E3 Fab: chimeric monoclonal antibody acting on platelet GP IIb/IIIa integrin to inhibit aggregation”, which “antibody loaded per mm^2 stent surface area” value is on record?
**A.** The value was “approximately 0.10 μg per mm^2”.

**Q.** And the “total antibody loaded for a 3×20 mm GR II stent” value?
**A.** Its value is “approximately 10 μg”.
